Some of these results come from one statement about several compounds together.
Legend:
[1] = system: HUVECS; assay: Emory Laboratory Cell Screen, Neutral Red, HUVECS; assay type: cell-based, human
Procedure: Human tumor and endothelial cell lines were treated for 72 hours with compounds at a minimum of four concentrations between 0.1 μM-40 μM. Neutral Red assay was used to calculate cell viability.

[2] = system: SVR cells; assay: Neutral Red Assay, transformed murine endothelial cells (SVR); assay type: cell-based
[3] = system: Vascular Endothelial Growth Factor (VEGF) production by human melanoma cell line RPMI-7951; assay: VEGF ELISA, RPMI-7951; conditions: Series II analogs

SMILES	Cytotoxicity to normal VECs, in words [1]	Cytotoxicity to malignant VECs, in words [2]	VEGF production and cell death, in words [3]
O=C(CCc1ccc(F)cc1F)CCc1ccc(F)cc1F [EF21, 1,5-Bis(2,4-difluorophenyl)-pentan-3-on]	not cytotoxic	not cytotoxic	selectively blocked VEGF production without causing cell death
OC(CCc1ccc(F)c(F)c1)CCc1ccc(F)c(F)c1 [EF20, 1,5-Bis(3,4-difluorophenyl)-pentan-3-ol]	not cytotoxic	not cytotoxic	selectively blocked VEGF production without causing cell death
OC(CCc1ccc(F)cc1F)CCc1ccc(F)cc1F [EF19, 1,5-Bis(2,4-difluorophenyl)-pentan-3-ol]	not cytotoxic	not cytotoxic	selectively blocked VEGF production without causing cell death
O=C(CCc1ccc(F)c(F)c1)CCc1ccc(F)c(F)c1 [EF22, 1,5-Bis(3,4-difluorophenyl)-pentan-3-on]	not cytotoxic	not cytotoxic	selectively blocked VEGF production without causing cell death

Reference: patent publication US7371766B2, “Curcumin analogs with anti-tumor and anti-angiogenic properties” (Emory University, priority 1999, dated 2008)
